No constants are given. Whether binding was seen depends on the method and setting. In cells and extracts the contact can be indirect. Some results given as binding are weak or reduced against the parent protein; the word gives no strength. Where a sequence is shown, tags or fusion partners need not be part of it.
Molecular target: HA-p65 (full-length), Q04206
Assay: co-IP
Conditions: remark: other sources report otherwise

binding: binds
B1: Flag-NSD2, O96028 1-1365 (enzyme)
chain: MEFSIKQSPLSVQSVVKCIKMKQAPEILGSANGKTPSCEVNRECSVFLSKAQLSSSLQEGVMQKFNGHDALPFIPADKLKDLTSRVFNGEPGAHDAKLRFESQEMKGIGTPPNTTPIKNGSPEIKLKITKTYMNGKPLFESSICGDSAADVSQSEENGQKPENKARRNRKRSIKYDSLLEQGLVEAALVSKISSPSDKKIPAKKESCPNTGRDKDHLLKYNVGDLVWSKVSGYPWWPCMVSADPLLHSYTKLKGQKKSARQYHVQFFGDAPERAWIFEKSLVAFEGEGQFEKLCQESAKQAPTKAEKIKLLKPISGKLRAQWEMGIVQAEEAASMSVEERKAKFTFLYVGDQLHLNPQVAKEAGIAAESLGEMAESSGVSEEAAENPKSVREECIPMKRRRRAKLCSSAETLESHPDIGKSTPQKTAEADPRRGVGSPPGRKKTTVSMPRSRKGDAASQFLVFCQKHRDEVVAEHPDASGEEIEELLRSQWSLLSEKQRARYNTKFALVAPVQAEEDSGNVNGKKRNHTKRIQDPTEDAEAEDTPRKRLRTDKHSLRKRDTITDKTARTSSYKAMEAASSLKSQAATKNLSDACKPLKKRNRASTAASSALGFSKSSSPSASLTENEVSDSPGDEPSESPYESADETQTEVSVSSKKSERGVTAKKEYVCQLCEKPGSLLLCEGPCCGAFHLACLGLSRRPEGRFTCSECASGIHSCFVCKESKTDVKRCVVTQCGKFYHEACVKKYPLTVFESRGFRCPLHSCVSCHASNPSNPRPSKGKMMRCVRCPVAYHSGDACLAAGCSVIASNSIICTAHFTARKGKRHHAHVNVSWCFVCSKGGSLLCCESCPAAFHPDCLNIEMPDGSWFCNDCRAGKKLHFQDIIWVKLGNYRWWPAEVCHPKNVPPNIQKMKHEIGEFPVFFFGSKDYYWTHQARVFPYMEGDRGSRYQGVRGIGRVFKNALQEAEARFREIKLQREARETQESERKPPPYKHIKVNKPYGKVQIYTADISEIPKCNCKPTDENPCGFDSECLNRMLMFECHPQVCPAGEFCQNQCFTKRQYPETKIIKTDGKGWGLVAKRDIRKGEFVNEYVGELIDEEECMARIKHAHENDITHFYMLTIDKDRIIDAGPKGNYSRFMNHSCQPNCETLKWTVNGDTRVGLFAVCDIPAGTELTFNYNLDCLGNEKTVCRCGASNCSGFLGDRPKTSTTLSSEEKGKKTKKKTRRRRAKGEGKRQSEDECFRCGDGGQLVLCDRKFCTKAYHLSCLGLGKRPFGKWECPWHHCDVCGKPSTSFCHLCPNSFCKEHQDGTAFSCTPDGRSYCCEHDLGAASVRSTKTEKPPPEPGKPKGKRRRRRGWRRVTEGK

From publication doi:10.1101/2023.09.11.557111
